Structures can show the parent of a compound that is named as a salt. This is one part of the list. Repeats in this data set agree poorly, so a single value says little.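 The cells were human embryonic kidney cells carrying a Renilla luciferase gene, driven by the HSV-TK promoter, on a plasmid put in briefly by transfection. This is the first-round screen of about ten thousand compounds, looking for ones that raise reporter output.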
system: HEK 293FT; experiment: log relative Renilla luciferase luminescence (reporter expression vs reference, reference not stated) (log (base not stated)); higher = higher recombinant reporter expression; details: 10 µM; time after transfection 48 h

CC(C)(C)c1ccc(S(=O)(=O)/C=C/C#N)cc1 and NS(=O)(=O)Cc1noc2ccccc12 [Zonisamide] are within 0.2 log units of each other in log: -0.076 for the first, -0.0455 for the second.

N=C(N)SCCc1ccc(OCc2ccc([N+](=O)[O-])cc2)cc1 [KB-R7943 mesylate] and CC(=O)NCCc1c(Cc2ccccc2)[nH]c2ccccc12 [Luzindole] are within 0.2 log units of each other in log: -0.0863 for the first, -0.0942 for the second.

Compared with O=C(O)c1cccnc1C(=O)O [Quinolinic acid], N[C@@H](CSC(c1ccccc1)(c1ccccc1)c1ccccc1)C(=O)O [S-Trityl-L-cysteine] is higher in log: -0.738 for the first, -0.0131 for the second.

CC(=O)O[C@H]1C(=O)[C@@]2(C)[C@H]([C@H](OC(=O)c3ccccc3)[C@]3(O)C[C@H](OC(=O)[C@H](O)[C@@H](NC(=O)c4ccccc4)c4ccccc4)C(C)=C1C3(C)C)[C@]1(OC(C)=O)CO[C@@H]1C[C@@H]2O [Taxol] and CC(NC(=O)c1ccccc1/N=C/c1c(O)ccc2ccccc12)c1ccccc1 (stereo not drawn) [Sirtinol] are within 0.2 log units of each other in log: 0.114 for the first, -0.00841 for the second.

Cc1nc2sccn2c(=O)c1CCN1CCC(=C(c2ccccc2)c2ccc(F)cc2)CC1 and CNCCCCOc1ccccc1Cc1ccccc1 [Bifemelane hydrochloride] are within 0.2 log units of each other in log: -0.0231 for the first, 0.00106 for the second.

C[C@@]1(O)[C@H](O)[C@@H](CO)O[C@H]1n1cnc2c(NC3CCCC3)nc(Cl)nc21 and O=C1CCc2cc(OCCCCc3nnnn3C3CCCCC3)ccc2N1 [Cilostazol] are within 0.2 log units of each other in log: -0.0171 for the first, 0.0286 for the second.

With O=S(=O)(NCCNC/C=C/c1ccc(Br)cc1)c1cccc2cnccc12 [H 89 dihydrochloride] the log was -0.0964.

— the supplement of paper PMC7024190
